From US20260250404A1
No constants are given. Whether binding was seen depends on the method and setting. Some binding calls cover weakened binding; strength is not graded here. Tags and fused reporters may be left off the sequences shown.

Sequences of proteins named here, by UniProt entry; tags and fusion partners are left off. A change or cut given only in a name is not applied to a line headed by its entry.
UniProt P26842: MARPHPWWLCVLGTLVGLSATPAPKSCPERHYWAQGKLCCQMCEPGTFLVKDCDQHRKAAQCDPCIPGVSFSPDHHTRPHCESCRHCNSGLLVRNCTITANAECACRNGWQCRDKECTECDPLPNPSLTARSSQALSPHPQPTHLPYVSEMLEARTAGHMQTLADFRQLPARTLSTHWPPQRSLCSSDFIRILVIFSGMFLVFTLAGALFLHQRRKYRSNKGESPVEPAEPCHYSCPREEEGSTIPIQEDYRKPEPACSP

How the values were obtained:
[1] = target: human CD27 on the cell surface (T cells, transfected HEK293F cells, Daudi cells, NFκB-luc2/CD27 Jurkat cells) (human) (UniProt P26842); experiment: flow cytometry on T cells and transfected HEK293F cells
[2] = target: human CD27 on the cell surface (T cells, transfected HEK293F cells, Daudi cells, NFκB-luc2/CD27 Jurkat cells) (human) (UniProt P26842); experiment: flow cytometry on human T cells (PBMC) and CD27-transfected HEK293F cells
[3] = target: human CD27 on the cell surface (T cells, transfected HEK293F cells, Daudi cells, NFκB-luc2/CD27 Jurkat cells) (human) (UniProt P26842); experiment: flow cytometry on T cells in human PBMC (endogenous CD27), PE-labeled goat anti-human IgG, median MFI PE
[4] = target: human CD27 on the cell surface (T cells, transfected HEK293F cells, Daudi cells, NFκB-luc2/CD27 Jurkat cells) (human) (UniProt P26842); experiment: flow cytometry on HEK293F cells transfected with human CD27, PE-labeled goat anti-human IgG, median MFI PE

Measured: binding

B1: IgG1-CD27-A carrying F405L-L234F-L235E-D265A in the IgG Fc domain (antibody, V domains shown)
VH: QVQLMQSGSELKKPGASVKVSCRASGYTFTTYAMNWVRQAPGQGPEWMGWINTNTGNPTYAQGFTGRFVFSLDTTVTTTYLQISSLKAEDTAVYFCAREAGSFDYWGQGTLVTVSS
VL: QSALTQPASVSGSPGQSITISCTGTSSDVYYYNYVSWYQQHPGRAPKLVIYDVSNRPSGVSNRFSGSKSGNTASLTISGLRAEDEADYYCSSYTVNRVWVFGGGTKLTVL
binds: all assays above
